Data taken from PubChem BioAssay AID1671190 (National Center for Advancing Translational Sciences (NCATS), 2021).
“And” between values parts separate entries of the source, which are not always exact repeats. Equal values may be shown once. In all, about 580,000 compounds went through this assay and about 6,100 (1.1%) were called active. This list was built around the results that the source calls inconclusive (neither active nor inactive); the mix of calls is not that of the screen. The call rests on the fitted dose curve; in most records, active means well fitted inhibition curve with a large enough effect; inconclusive means small, poorly fitted or top-dose-only effect, or another doubt; inactive means no such curve, though single readings can be large or run the other way. Potencies of inconclusive entries are doubtful fits and often do not repeat.

By UniProt entry, the sequences of proteins in these tests, tags left out.
UniProt P18054, whole entry, looked up: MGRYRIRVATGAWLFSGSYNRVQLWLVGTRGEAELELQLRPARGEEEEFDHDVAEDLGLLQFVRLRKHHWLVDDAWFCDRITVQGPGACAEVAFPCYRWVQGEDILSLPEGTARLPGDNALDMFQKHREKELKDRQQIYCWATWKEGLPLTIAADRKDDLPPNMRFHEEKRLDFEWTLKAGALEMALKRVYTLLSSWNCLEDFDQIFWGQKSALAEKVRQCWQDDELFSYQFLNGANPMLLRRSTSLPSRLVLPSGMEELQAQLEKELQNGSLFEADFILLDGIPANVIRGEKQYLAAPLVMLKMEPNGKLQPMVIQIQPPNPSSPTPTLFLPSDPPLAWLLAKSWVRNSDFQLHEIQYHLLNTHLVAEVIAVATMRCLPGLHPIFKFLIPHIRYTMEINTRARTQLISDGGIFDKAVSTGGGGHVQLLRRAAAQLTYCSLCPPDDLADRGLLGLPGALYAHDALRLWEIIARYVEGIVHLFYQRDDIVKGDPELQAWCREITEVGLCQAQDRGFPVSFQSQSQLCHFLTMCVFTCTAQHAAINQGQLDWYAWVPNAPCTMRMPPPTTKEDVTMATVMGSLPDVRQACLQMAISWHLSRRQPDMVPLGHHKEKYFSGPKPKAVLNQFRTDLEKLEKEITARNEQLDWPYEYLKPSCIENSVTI

biological target: Polyunsaturated fatty acid lipoxygenase ALOX12 (Homo sapiens) (UniProt P18054); test: Primary qHTS assay for inhibitors of human arachidonate 12S-lipoxygenase (ALOX12): Round 2; details: purified 12hLO, xylenol orange hydroperoxide absorbance; activity change, negative = inhibition: at 108 µM (top of the series) unless noted
How it was run: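 Purified human 12hLO at 150 nM in 25 mM Hepes, 0.01% Triton X-100, pH 7.0, preincubated 15 min at room temperature with compound. Reaction started with 40 uM arachidonic acid, 30 min at room temperature. Hydroperoxide measured by Fe-xylenol orange, 573/405 nm absorbance ratio.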
On the % scale 0 is the no-effect control and ±100 the full control effect; potency means the concentration at half of the fitted maximal effect.

| Compound | Potency | activity change, negative = inhibition |
| --- | --- | --- |
| CCCCCCCn1c2c(c(=N)c3ccccc31)CCC2 | inconclusive: 50.1 µM [inhibitor, partial curve, poor fit] | – |
| CCN(CCO)c1ccc(Nc2cc(-c3ccc(-c4ccccc4)cc3)ncn2)cc1 | active: 11.2 µM | – |
| NC(=S)N/N=C\c1c2ccccc2cc2ccccc12 | inconclusive: 50.1 µM [inhibitor, partial curve, poor fit] | – |
| CN(C)CCCN(C(=O)c1ccc2c(c1)OCCO2)c1nc2ccc(Cl)cc2s1 | active: 44.7 µM | – |
| CCCc1cnc(NCCNCC(O)COc2ccc(Cl)c(Cl)c2)nc1 (centres undefined) | inconclusive: 112 µM [inhibitor, single point] | – |
| COc1cccc(-c2nnc(SCC(=O)NC3CCCCC3)o2)c1 | inconclusive: 100 µM [inhibitor, partial curve, poor fit] | – |
| Cc1ccc(/C=C/C(=O)OCC(=O)N(CC(C)C)c2c(N)n(Cc3ccccc3)c(=O)[nH]c2=O)o1 | – | inactive: -15% |
| Cc1ccc2nc(-c3cccc(Cl)c3)c(Cc3ccccc3C(F)(F)F)n2c1 | inconclusive: 100 µM [inhibitor, single point] | – |
| Cc1ncc(-c2ccc(S(=O)(=O)Nc3ccc(C)c(C)c3)cc2)o1 | inconclusive: 31.6 µM [inhibitor, single point] | – |
| COc1ccc(NC(=O)CC2C(=O)N(C)C(=S)N2CCc2ccc(F)cc2)cc1 (centres undefined) | inconclusive: 25.1 µM [inhibitor, partial curve, poor fit] | – |
| O=C(Nc1ccccc1)c1ccc(-c2ccc([N+](=O)[O-])cc2)o1 | inconclusive: 112 µM [inhibitor, partial curve, poor fit] | – |
| C/C(=C\C(=O)c1cccnc1)Nc1ccc(C(=O)O)cc1 | inconclusive: 3.98 µM [inhibitor, full curve] | – |
| Cc1ccc(S(=O)(=O)Nc2ccncc2)c(C)c1N(C)S(=O)(=O)c1ccc(F)cc1 | – | inactive: -25.1% |
| Cc1cccc(C)c1NC(=O)Cn1ccn2nc3c(c2c1=O)CCCCC3 | inconclusive: 7.94 µM [inhibitor, full curve, poor fit] | – |
| O=C(CN1C(=O)NC2(CCCCC2)C1=O)Oc1ccc2ccc(=O)oc2c1 | – | inactive: 361% |
| Nc1[nH]c(/C=C2/CCCCC2n2[nH]c(=O)n(-c3ccccc3)c2=O)c(Cc2ccccc2)[n+]1Cc1ccccc1 (centres undefined) | inconclusive: 5.01 µM [inhibitor, full curve, poor fit] | – |
| O=C(O)COc1cccc(-c2ocnc2-c2nc(-c3ccccc3)c(-c3ccccc3)o2)c1 | – | inactive: 201% |
| CC(c1cccs1)N(C)S(C)(=O)=O (centres undefined) | – | inactive: 10.1% [at 176 µM] |
| CC(C)[C@H](NC(=O)c1ccccc1F)C(=O)Nc1cccc(S(=O)(=O)N2CCCCC2)c1 | inconclusive: 44.7 µM [inhibitor, partial curve, poor fit] | – |
| COc1cccc(-c2nc(-c3ccccc3)nc(N3CCN(C)CC3)c2C#N)c1 | inconclusive: 50.1 µM [inhibitor, partial curve, poor fit] | – |
| COC1=C(c2ccccc2)C(=O)c2ccccc2C1=O | – | inactive: -19% |
| Cc1ccc(C)c(OCCC(=O)OCC(=O)N(C)c2c(N)n(Cc3ccccc3)c(=O)[nH]c2=O)c1 | inconclusive: 141 µM [inhibitor, single point] | – |
| CC(C)NC(=O)N[C@H]1C[C@@H](Cc2cc(CN3CCN(c4ccccc4)CC3)on2)C1(C)C | – | inactive: -4.32% |

Record cards (already shown):
Nc1[nH]c(/C=C2/CCCCC2n2[nH]c(=O)n(-c3ccccc3)c2=O)c(Cc2ccccc2)[n+]1Cc1ccccc1 (centres undefined) as listed: Potency: inconclusive: 5.01 µM [inhibitor, full curve, poor fit]
Cc1ccc(S(=O)(=O)Nc2ccncc2)c(C)c1N(C)S(=O)(=O)c1ccc(F)cc1 as listed: activity change, negative = inhibition: inactive: -25.1%
CC(C)[C@H](NC(=O)c1ccccc1F)C(=O)Nc1cccc(S(=O)(=O)N2CCCCC2)c1 as listed: Potency: inconclusive: 44.7 µM [inhibitor, partial curve, poor fit]

Going on with the list:

| Compound | Potency | activity change, negative = inhibition |
| --- | --- | --- |
| CC(C)CN(CC(C)C)C(=O)Nc1ccc(F)cc1F | inconclusive: 126 µM [inhibitor, single point] | – |
| OCCCNc1nc(-c2ccc(Cl)cc2)nnc1-c1ccccc1 | inconclusive: 50.1 µM [inhibitor, partial curve, poor fit] | – |
| COc1ccc(Cl)cc1NC(=O)CCc1ncc(-c2ccc(F)cc2F)o1 | inconclusive: 50.1 µM [inhibitor, partial curve, poor fit] | – |
| O=[N+]([O-])c1ccc(S(=O)(=O)N2CCSC2c2ccco2)cc1 (centres undefined) | – | inactive: 19.1% |
| Cc1nc(CN2Cc3nc(N(C)c4ccccc4)ccc3OCC2=O)cs1 | inconclusive: 100 µM [inhibitor, partial curve, poor fit] | – |
| COc1ccc(NC(=O)C2CCCN(S(=O)(=O)c3ccc4c(c3)oc(=O)n4C)C2)c(OC)c1 (centres undefined) | – | inconclusive: -31.5% [inhibitor] |
| Fc1ccc(CNCc2ccc(-c3ccccc3)o2)cc1 | inconclusive: 1.78 µM [inhibitor, full curve, poor fit] | – |
| COc1ccc(-c2ccc(CCC(=O)NC(C)C)o2)cc1 | inconclusive: 50.1 µM [inhibitor, partial curve] | – |
| Cc1ccccc1NC(=O)Cc1nc(COC(=O)CCc2ccccc2)cs1 | inconclusive: 79.4 µM [inhibitor, partial curve, poor fit] | – |
| Cn1c(-c2ccc(Br)cc2)cnc1NCc1ccc(C#N)cc1 | active: 2.51 µM | – |
| COc1ccc(CCNC(=O)COc2cc(O)c3c(c2)OC(C)(C)CC3=O)cc1OC | inconclusive: 112 µM [inhibitor, single point] | – |
| O=C1COc2c1ccc(O)c2O | inconclusive: 3.16 µM [inhibitor, full curve, poor fit] | – |
| FC(F)(F)COc1cc(-c2nnc(SCc3ccccc3)n2Cc2ccco2)cc(OCC(F)(F)F)n1 | inconclusive: 126 µM [inhibitor, single point] | – |
| CCOc1ccc(-c2cc(C(=O)N/N=C(\C)c3cccnc3)c3ccccc3n2)c(OCC)c1 | – | inactive: 319% |
| Cc1noc(C)c1-c1nc(NCCN2CCOCC2)c2ccccc2n1 | active: 56.2 µM | – |
| CCCCNC(=S)NC1CCCC(C)C1C (centres undefined) | inconclusive: 141 µM [inhibitor, single point] | – |
| CCOC(=O)C1(Cc2ccc(F)cc2F)CCCN(S(=O)(=O)c2ccsc2)C1 (centres undefined) | inconclusive: 79.4 µM [inhibitor, single point] | – |
| O=C(O)CC1C(=O)NCCN1CCc1ccccc1 (centres undefined) | – | inactive: -3.95% |
| COCCNC(=O)CCc1c(C)nn(-c2ccc(F)cc2)c1Oc1ccccc1C | – | inactive: 62% |
| Cc1ccc(Cn2c(=S)[nH]c3ccccc3c2=O)cc1 | – | inactive: 3.16% |
| Cc1ccc(Cn2ccnc2SCC(=O)Nc2nc3ccccc3s2)cc1 | inactive | – |
| N#Cc1c(-c2ccc(Cl)cc2)cc(-c2ccc(Br)cc2)c(C#N)c1N | – | inactive: -12.6% |
| O=C(NCc1ccccc1F)c1ccc2c(c1)CN(Cc1ccncc1)CCO2 | inconclusive: 4.47 µM [inhibitor, full curve, poor fit] | – |

| Compound | Potency | activity change, negative = inhibition |
| --- | --- | --- |
| Cc1ccccc1P(=O)(c1ccccc1)c1ccccc1C | – | inactive: 1.7% |
| COc1ccc(CN(C)CC2CCCN(CCc3ccc(F)cc3)C2)cc1OC (centres undefined) | inconclusive: 31.6 µM [inhibitor, partial curve] | – |
| C[C@H]1CCCCO[C@@H](CN(C)C(=O)NC2CCCCC2)[C@@H](C)CN([C@@H](C)CO)C(=O)c2cc(NC(=O)Cc3ccccc3)ccc2O1 | inconclusive: 10 µM [inhibitor, full curve, poor fit] | – |
| Cn1c(=N)n(CC(=O)c2ccccc2)c2ccccc21 | – | inactive: 0% |
| NS(=O)(=O)c1ccc(NC(=O)C(=O)Nc2ccc3nc4n(c(=O)c3c2)CCCCC4)cc1 | inconclusive: 89.1 µM [inhibitor, partial curve, poor fit] | – |
| CCOC(=O)NC(CNC(=O)c1ccccc1C)CC(C)C (centres undefined) | – | inactive: 30% |
| O=C(/C=C/c1cccs1)c1cc2ccccc2o1 | inconclusive: 35.5 µM [inhibitor, partial curve, poor fit] | – |
| CCOc1ccccc1NC(=O)Nc1ccc(Cl)cc1 | inconclusive: 50.1 µM [inhibitor, partial curve, poor fit] | – |
| C[n+]1ccc2[nH]c3ccccc3c2c1 | inconclusive: 50.1 µM [inhibitor, partial curve, poor fit] | – |
| COCC(=O)N(Cc1cc2cc(OC)ccc2[nH]c1=O)c1ccccc1OC | – | inactive: 0% |
| O=C(COc1cccc(Cl)c1)N/N=C\c1cc2ccccc2nc1Cl | – | inactive: 20.3% |
| O=C(CNS(=O)(=O)c1ccc2ccccc2c1)OCc1csc(-c2ccccc2)n1 | inconclusive: 39.8 µM [inhibitor, partial curve] | – |
| O=S1(=O)c2c(F)cccc2OC(COc2ccccc2)CN1CCc1ccc(F)cc1 (centres undefined) | – | inactive: -3.62% |
| CCC(=O)N1Cc2cc(C(=O)NCc3cccc(F)c3)nc(-c3cccc(C4=CCCC4)c3)c2[C@H]1CCO | inconclusive: 100 µM [inhibitor, single point] | – |
| O=c1ccc(-c2ccccc2)nn1Cc1ccc(F)cc1Cl | inconclusive: 158 µM [inhibitor, partial curve, poor fit] and inconclusive: 126 µM [inhibitor, single point] | – |
| Cc1cc(C(=O)CSc2nnc3ccccn23)c(C)n1-c1ccccc1 | – | inactive: -0.211% |
| Cc1cc(C)c(C(=O)N(CC2CCN(C3Cc4ccccc4C3)CC2)CC2CCCO2)o1 (centres undefined) | – | inactive: 16.8% |
| CN1Cc2nnn(Cc3ccccc3)c2-c2cc(N3CCCC3)ccc2S1(=O)=O | – | inactive: 36.4% |
| COc1ccc(C2Nc3c(C)cc(C)cc3-c3cc(C)nn32)cc1O (centres undefined) | inconclusive: 70.8 µM [inhibitor, partial curve, poor fit] | – |
| CN1c2ccccc2Sc2cc(N)ccc21 | inconclusive: 44.7 µM [inhibitor, partial curve, poor fit] | – |
| CC(C)N(C)CC1CCN(C(=O)NCCc2ccc(F)cc2)CC1 | – | inactive: 11.8% |
| Cc1ccc2cc(C(=O)NCc3ccco3)[nH]c2c1 | inconclusive: 56.2 µM [inhibitor, single point] | – |
| Cc1cccc(NC(=S)NN)c1 | inconclusive: 112 µM [inhibitor, partial curve, poor fit] | – |
